Measured values: article PMC5703960
These are yes or no findings as the source states them, for the method shown. In cells and extracts the contact can be indirect. Some binding calls cover weakened binding; strength is not graded here. Values belong to the substance of their own block, whether it stands above or below them.

Chains of the proteins cited; added tags and fusions are not shown.
UniProt Q16665: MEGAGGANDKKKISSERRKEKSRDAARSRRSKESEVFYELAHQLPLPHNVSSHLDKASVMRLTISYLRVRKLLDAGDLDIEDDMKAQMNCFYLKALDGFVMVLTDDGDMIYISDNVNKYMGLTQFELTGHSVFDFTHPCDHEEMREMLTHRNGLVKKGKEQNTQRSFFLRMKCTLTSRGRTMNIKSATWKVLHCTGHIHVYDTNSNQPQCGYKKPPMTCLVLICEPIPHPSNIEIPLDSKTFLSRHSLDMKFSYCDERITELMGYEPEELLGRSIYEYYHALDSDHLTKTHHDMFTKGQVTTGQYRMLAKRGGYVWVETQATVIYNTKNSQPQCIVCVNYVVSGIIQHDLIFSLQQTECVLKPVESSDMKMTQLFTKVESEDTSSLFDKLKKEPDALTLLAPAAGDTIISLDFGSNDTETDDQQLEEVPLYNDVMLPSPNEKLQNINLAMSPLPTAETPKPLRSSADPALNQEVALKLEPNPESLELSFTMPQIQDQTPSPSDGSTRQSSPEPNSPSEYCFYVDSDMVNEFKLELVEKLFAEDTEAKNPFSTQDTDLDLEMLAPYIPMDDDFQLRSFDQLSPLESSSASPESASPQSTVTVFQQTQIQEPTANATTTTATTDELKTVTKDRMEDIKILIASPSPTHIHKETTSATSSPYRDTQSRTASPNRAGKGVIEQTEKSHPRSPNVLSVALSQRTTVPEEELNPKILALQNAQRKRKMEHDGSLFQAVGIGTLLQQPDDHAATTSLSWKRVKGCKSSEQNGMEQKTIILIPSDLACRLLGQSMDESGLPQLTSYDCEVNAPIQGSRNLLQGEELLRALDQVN

Tests used:
[1] = biological target: HA-tagged HIF-1α (pLHCX-HA-HIF-1α), wild type (human) (UniProt Q16665); experiment: co-IP; MCF7 cells expressing Myc-Parkin and HA-HIF-1α (WT or mutants); anti-Myc (9E10) or anti-HA agarose beads (20 µl), western blot
[2] = biological target: Myc-tagged Parkin (pLPCX-Myc-Parkin), wild type (human) (UniProt O60260); experiment: as above
[3] = biological target: endogenous Parkin (human (endogenous in MCF7, T47D, MCF10A)) (UniProt O60260); experiment: co-IP; endogenous proteins in MCF7, T47D and MCF10A cells; anti-Parkin antibody (5 µg) and anti-HIF-1α antibody (5 µg), mouse IgG as negative control; Parkin shRNA knock-down in MCF7 as negative control

binding [1]: binds
Substance: Myc-tagged Parkin (pLPCX-Myc-Parkin), wild type (from UniProt O60260 1-465) (enzyme)

binding [2]: binds
Substance: HA-tagged HIF-1α (pLHCX-HA-HIF-1α), wild type (from UniProt Q16665 1-826)

binding [3]: binds
Substance: endogenous HIF-1α (from UniProt Q16665 1-826)
